Laboratory results: the supplement of paper PMC10849652
This is one part of the list.

Amino acid sequences for entries named in this document (tags omitted). A change or cut given only in a name is not applied to a line headed by its entry.
UniProt Q6WKZ4: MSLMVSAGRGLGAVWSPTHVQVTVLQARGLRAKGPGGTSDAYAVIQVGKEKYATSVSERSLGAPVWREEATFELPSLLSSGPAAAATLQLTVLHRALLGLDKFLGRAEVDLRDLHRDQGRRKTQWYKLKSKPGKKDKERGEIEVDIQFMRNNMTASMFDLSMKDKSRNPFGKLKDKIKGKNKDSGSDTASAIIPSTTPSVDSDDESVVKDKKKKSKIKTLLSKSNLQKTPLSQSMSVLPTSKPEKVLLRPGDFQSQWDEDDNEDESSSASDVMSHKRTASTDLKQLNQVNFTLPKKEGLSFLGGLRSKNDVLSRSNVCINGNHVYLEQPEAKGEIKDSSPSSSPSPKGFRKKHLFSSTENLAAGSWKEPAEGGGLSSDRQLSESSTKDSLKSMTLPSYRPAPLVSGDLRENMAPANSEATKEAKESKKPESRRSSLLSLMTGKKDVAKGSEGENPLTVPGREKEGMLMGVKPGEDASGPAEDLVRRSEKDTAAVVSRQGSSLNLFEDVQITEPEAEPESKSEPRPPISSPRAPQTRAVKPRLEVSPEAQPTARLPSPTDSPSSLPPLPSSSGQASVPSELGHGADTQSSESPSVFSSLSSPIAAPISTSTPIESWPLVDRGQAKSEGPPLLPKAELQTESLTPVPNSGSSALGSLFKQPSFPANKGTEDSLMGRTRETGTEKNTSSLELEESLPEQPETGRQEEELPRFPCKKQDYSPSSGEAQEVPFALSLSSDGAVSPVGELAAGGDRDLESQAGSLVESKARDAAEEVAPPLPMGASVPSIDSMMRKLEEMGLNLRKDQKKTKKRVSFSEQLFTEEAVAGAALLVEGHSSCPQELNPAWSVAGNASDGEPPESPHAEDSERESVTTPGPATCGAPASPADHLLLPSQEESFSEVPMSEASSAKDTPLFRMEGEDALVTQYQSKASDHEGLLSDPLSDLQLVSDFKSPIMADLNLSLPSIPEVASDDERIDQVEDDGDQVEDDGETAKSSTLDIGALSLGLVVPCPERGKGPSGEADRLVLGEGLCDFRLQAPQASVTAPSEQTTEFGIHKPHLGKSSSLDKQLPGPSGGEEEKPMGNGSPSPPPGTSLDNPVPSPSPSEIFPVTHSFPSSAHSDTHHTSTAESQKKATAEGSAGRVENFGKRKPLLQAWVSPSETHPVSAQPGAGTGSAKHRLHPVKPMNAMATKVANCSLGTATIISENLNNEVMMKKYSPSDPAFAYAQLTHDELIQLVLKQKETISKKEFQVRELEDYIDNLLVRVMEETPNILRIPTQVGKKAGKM
UniProt P49792, whole entry, looked up: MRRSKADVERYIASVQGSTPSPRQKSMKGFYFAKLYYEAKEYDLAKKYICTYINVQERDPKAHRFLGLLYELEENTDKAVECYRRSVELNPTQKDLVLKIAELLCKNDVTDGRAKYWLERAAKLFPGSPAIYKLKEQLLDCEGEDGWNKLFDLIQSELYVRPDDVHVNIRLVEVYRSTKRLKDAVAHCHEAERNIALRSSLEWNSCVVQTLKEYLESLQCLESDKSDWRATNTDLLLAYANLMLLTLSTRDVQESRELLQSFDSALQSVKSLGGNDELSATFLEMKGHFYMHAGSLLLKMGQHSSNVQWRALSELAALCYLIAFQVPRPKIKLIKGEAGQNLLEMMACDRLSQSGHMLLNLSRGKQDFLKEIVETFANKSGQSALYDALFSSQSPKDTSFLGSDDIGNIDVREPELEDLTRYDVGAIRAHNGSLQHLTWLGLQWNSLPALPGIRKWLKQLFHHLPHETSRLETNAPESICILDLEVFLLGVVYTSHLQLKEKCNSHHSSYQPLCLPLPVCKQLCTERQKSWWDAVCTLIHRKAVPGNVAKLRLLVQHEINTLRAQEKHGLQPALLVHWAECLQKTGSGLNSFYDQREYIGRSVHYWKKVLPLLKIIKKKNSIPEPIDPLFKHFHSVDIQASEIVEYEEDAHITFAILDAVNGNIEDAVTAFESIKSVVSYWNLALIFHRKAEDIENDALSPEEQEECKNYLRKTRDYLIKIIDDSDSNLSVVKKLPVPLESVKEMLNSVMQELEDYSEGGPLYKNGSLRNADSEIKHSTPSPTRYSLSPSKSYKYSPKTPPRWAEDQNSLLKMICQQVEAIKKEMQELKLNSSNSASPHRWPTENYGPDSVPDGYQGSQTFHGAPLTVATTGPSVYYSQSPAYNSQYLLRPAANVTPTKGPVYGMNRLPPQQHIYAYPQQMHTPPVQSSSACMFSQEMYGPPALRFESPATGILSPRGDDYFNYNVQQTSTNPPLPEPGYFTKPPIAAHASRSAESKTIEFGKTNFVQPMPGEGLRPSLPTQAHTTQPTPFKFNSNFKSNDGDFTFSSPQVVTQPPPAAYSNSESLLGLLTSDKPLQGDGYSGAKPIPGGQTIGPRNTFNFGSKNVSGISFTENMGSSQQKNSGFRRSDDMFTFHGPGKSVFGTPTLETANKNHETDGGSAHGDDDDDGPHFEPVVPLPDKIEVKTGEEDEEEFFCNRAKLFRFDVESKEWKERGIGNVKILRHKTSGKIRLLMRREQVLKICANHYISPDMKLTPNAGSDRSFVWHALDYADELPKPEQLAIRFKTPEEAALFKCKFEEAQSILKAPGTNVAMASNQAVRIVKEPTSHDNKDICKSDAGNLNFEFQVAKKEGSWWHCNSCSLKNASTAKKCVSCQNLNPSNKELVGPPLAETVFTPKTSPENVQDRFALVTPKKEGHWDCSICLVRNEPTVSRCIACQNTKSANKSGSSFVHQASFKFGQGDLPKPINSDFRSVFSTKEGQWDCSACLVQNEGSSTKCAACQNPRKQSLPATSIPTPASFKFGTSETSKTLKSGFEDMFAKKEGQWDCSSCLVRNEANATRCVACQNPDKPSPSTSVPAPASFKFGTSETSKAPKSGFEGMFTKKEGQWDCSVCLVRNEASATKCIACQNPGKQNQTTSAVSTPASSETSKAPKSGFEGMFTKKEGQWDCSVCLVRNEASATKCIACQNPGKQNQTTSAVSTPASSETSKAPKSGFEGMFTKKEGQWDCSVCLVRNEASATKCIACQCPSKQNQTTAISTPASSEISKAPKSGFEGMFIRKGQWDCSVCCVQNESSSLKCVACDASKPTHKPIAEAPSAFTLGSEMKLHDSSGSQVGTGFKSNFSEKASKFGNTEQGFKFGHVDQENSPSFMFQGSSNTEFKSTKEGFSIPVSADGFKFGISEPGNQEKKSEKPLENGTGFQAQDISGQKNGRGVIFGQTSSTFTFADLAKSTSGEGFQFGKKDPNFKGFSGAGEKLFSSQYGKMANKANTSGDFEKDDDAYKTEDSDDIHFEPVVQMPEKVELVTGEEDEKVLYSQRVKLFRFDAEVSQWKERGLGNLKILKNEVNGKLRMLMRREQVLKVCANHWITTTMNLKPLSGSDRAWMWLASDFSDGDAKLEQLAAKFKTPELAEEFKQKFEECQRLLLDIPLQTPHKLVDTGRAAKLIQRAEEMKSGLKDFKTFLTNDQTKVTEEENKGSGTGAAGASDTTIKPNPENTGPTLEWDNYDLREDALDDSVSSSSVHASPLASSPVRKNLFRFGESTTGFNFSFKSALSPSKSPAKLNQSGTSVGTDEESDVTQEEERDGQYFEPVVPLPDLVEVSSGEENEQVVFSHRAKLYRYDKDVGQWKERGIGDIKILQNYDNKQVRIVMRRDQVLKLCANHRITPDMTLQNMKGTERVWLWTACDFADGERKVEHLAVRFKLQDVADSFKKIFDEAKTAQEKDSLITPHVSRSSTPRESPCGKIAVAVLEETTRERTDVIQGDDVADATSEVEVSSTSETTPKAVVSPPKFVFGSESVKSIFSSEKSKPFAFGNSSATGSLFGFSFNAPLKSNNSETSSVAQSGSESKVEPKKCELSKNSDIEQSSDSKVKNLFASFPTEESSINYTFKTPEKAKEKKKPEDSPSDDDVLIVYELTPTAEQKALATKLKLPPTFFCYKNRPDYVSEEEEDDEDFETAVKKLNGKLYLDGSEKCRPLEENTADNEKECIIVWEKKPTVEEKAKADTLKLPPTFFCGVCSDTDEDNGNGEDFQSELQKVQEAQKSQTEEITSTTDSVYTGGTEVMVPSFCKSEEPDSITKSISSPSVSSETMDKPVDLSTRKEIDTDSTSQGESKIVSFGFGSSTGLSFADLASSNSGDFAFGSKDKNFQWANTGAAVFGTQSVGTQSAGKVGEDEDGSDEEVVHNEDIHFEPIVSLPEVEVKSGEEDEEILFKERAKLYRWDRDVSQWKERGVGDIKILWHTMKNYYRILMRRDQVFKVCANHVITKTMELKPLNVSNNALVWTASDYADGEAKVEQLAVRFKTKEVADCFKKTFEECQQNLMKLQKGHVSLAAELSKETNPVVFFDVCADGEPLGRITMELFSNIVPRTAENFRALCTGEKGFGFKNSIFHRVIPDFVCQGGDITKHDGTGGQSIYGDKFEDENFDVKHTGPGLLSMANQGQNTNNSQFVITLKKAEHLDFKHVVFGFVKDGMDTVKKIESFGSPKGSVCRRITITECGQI
UniProt Q06609, whole entry, looked up: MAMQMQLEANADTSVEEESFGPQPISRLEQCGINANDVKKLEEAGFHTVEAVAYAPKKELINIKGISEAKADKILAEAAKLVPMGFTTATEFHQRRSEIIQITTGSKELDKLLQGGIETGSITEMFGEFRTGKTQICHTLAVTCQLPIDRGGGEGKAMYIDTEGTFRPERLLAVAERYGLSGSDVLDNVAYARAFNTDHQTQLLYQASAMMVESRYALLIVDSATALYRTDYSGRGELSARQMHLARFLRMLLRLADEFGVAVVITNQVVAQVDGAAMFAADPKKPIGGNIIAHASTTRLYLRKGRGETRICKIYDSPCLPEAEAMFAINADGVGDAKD
UniProt P62834: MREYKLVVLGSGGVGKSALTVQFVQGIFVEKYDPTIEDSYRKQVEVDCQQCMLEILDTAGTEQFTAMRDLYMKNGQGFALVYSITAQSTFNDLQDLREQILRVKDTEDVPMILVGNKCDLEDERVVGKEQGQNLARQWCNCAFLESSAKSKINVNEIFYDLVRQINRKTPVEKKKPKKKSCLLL
UniProt Q13636: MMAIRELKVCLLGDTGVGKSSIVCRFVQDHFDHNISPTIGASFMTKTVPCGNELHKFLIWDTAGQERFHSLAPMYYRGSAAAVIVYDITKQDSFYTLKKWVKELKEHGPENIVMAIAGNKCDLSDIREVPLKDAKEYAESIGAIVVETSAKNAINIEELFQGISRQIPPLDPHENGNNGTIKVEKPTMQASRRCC
UniProt Q6VN20, whole entry, looked up: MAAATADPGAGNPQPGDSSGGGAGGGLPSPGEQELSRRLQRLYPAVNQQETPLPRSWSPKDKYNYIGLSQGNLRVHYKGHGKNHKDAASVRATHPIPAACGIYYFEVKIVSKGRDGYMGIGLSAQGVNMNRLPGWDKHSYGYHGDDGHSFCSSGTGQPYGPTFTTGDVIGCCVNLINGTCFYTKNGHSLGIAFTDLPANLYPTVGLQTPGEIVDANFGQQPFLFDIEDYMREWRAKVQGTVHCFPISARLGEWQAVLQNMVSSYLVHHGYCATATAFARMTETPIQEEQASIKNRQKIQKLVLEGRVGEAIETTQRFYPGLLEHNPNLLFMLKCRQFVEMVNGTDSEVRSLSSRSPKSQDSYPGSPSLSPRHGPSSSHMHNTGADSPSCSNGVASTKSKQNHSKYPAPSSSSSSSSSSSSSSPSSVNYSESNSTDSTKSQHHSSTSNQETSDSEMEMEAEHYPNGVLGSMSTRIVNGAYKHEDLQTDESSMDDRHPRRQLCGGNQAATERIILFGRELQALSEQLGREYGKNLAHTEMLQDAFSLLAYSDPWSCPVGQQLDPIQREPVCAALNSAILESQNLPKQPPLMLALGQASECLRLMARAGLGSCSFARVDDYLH
UniProt Q9H0H5: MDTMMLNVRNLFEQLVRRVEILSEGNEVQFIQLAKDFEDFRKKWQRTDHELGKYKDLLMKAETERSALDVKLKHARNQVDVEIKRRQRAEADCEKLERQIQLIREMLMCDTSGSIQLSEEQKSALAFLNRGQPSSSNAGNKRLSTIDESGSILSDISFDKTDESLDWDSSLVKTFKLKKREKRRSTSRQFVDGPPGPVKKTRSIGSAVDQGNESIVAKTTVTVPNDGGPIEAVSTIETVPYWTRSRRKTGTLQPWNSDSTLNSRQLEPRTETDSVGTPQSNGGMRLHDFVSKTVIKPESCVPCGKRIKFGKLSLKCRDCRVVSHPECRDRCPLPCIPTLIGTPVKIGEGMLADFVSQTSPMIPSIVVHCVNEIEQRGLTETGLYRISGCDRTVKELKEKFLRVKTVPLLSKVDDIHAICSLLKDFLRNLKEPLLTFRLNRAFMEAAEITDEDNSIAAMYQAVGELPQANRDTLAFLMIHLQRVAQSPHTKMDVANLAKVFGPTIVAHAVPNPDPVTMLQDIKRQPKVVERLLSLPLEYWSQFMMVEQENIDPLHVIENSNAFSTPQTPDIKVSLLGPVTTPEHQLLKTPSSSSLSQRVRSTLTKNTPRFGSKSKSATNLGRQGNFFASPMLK

compound: Cc1ccc(NC(=O)c2ccc(CN3CC[C@H](N(C)C)C3)c(C(F)(F)F)c2)cc1Nc1nccc(-c2cncnc2)n1 [bafetinib]; assay: log2 fold change, soluble protein after heating vs DMSO (PISA); higher = thermal stabilisation; K562 cells, 10 uM, 30 min; active = over 0.2 and 3.5 SD of the protein, either way, in both replicates (recomputed)
Method in brief: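 Quantification of soluble protein used TMTpro 16plex LC-MS/MS, with channel sums equalised. Samples were the supernatant after 21,000xg for 90 min of pooled aliquots from K562 cells (2×10^6 cells/mL) treated with 10 μM compound for 30 min, heated for 3 min over 48°C-58°C, and extracted in PBS with 0.5% NP-40 at 4°C. Values, from duplicates, describe thermal stability against control samples on a log2 fold-change scale.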

log2 fold change, inactive:
RAB11FIP1 (UniProt Q6WKZ4) -0.042, RAB8B (UniProt Q92930) -0.008, RAP1B (UniProt F5GZG1) 0.017, RBM22 (UniProt Q9NW64) -0.085, RALY (UniProt Q9UKM9) 0.077, RASA2 (UniProt Q15283) 0.244, RAB11A (UniProt P62491) -0.034, RALGAPB (UniProt Q86X10) -0.018, RALGAPA1 isoform 6 (UniProt Q6GYQ0) -0.019, RANBP2 (UniProt P49792) -0.092, RBM27 (UniProt Q9P2N5) 0.007, RB1CC1 (UniProt Q8TDY2) -0.037, RACK1 (UniProt D6RF23) 0.05, RAD51 (UniProt Q06609) -0.002, RAP1A (UniProt P62834) -0.017, RASSF5 (UniProt Q8WWW0) 0.023, RAPGEF6 isoform 4 (UniProt Q8TEU7) -0.054, RAB31 (UniProt Q13636) -0.026, RAD9A (UniProt Q99638) -0.027, RAD51AP1 (UniProt Q96B01) -0.028, RB1 (UniProt P06400) 0.006, RANBP10 (UniProt Q6VN20) 0.024, RACGAP1 (UniProt Q9H0H5) -0.083
